Data published in patent publication US20260062414A1, “NOVEL COCRYSTALS OF METHYLXANTHINES, THEIR POLYMORPHS AND PROCESS THEREOF” (FERTIS INDIA PVT LTD, priority 2022, published 2026).

Experiment: Debittering studies: sensorial taste testing by eight panelists (preference / non-preference for consumption)
Format: in vivo, human
Details: preference (like) or non-preference (dislike) for consumption

SMILES | Preference (Panelist-1) | Preference (Panelist-2) | Preference (Panelist-3) | Preference (Panelist-4) | Preference (Panelist-5) | Preference (Panelist-6) | Preference (Panelist-7) | Preference (Panelist-8)
Cn1c(=O)c2c(ncn2C)n(C)c1=O [CA, Caffeine, reference compound] | No | No | No | No | No | No | No | No
COc1cc(/C=C/c2ccc(O)cc2)cc(OC)c1.Cn1c(=O)c2c(ncn2C)n(C)c1=O [CA:PB, Caffeine: Pterostilbene] | Yes | Yes | Yes | Yes | Yes | Yes | Yes | Yes
COc1nc2c(c(=O)n1C)n(C)c(=O)n2C [ML, Methylliberine, reference compound] | No | No | No | No | No | No | No | No
COc1cc(/C=C/c2ccc(O)cc2)cc(OC)c1.COc1nc2c(c(=O)n1C)n(C)c(=O)n2C [ML:PB, Methylliberine: Pterostilbene] | Yes | Yes | Yes | Yes | Yes | Yes | Yes | Yes
Cn1c(=O)[nH]c2ncn(C)c2c1=O [PX, Paraxanthine, reference compound] | No | No | No | No | No | No | No | No
COc1cc(/C=C/c2ccc(O)cc2)cc(OC)c1.Cn1c(=O)[nH]c2ncn(C)c2c1=O [PX:PB, Paraxanthine: Pterostilbene (1:1) Cocrystal] | Yes | Yes | Yes | Yes | Yes | Yes | Yes | Yes
Cn1cnc2c1c(=O)[nH]c(=O)n2C [TB, Theobromine, reference compound] | No | No | No | No | No | No | No | No
COc1cc(/C=C/c2ccc(O)cc2)cc(OC)c1.Cn1cnc2c1c(=O)[nH]c(=O)n2C [TB:PB, Theobromine: Pterostilbene (1:1) Cocrystal] | Yes | Yes | Yes | Yes | Yes | Yes | Yes | Yes
Cn1c(=O)c2c(n(C)c1=O)n(C)c(=O)n2C [TC, Theacrine, reference compound] | No | No | No | No | No | No | No | No
COc1cc(/C=C/c2ccc(O)cc2)cc(OC)c1.Cn1c(=O)c2c(n(C)c1=O)n(C)c(=O)n2C [TC:PB, Theacrine: Pterostilbene] | Yes | Yes | Yes | Yes | Yes | Yes | Yes | Yes
Cn1c(=O)c2[nH]cnc2n(C)c1=O [TP, Theophylline, reference compound] | No | No | No | No | No | No | No | No
Cn1c(=O)c2[nH]cnc2n(C)c1=O.Oc1ccc(/C=C/c2cc(O)cc(O)c2)cc1 [TP:RS, Theophylline: Resveratrol (1:1) Cocrystal] | Yes | Yes | Yes | Yes | Yes | Yes | Yes | Yes

The amount applied is not stated for every result.
